Values from PubChem BioAssay AID1224830 (NIAID, 2016).

Assay: 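Regulators of TLR4 signalling towards TNF-alpha in macrophage-like cells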 (primary screen)
System: human THP-1 monocytic leukaemia cells, TNF dual-luciferase reporter clone, PMA-differentiated to macrophage-like cells
Knock-down reagent: siRNA pool against human genes, 50 nM
Timing: LPS for 4 h, given about 3 days after siRNA transfection
Treatment: bacterial LPS (TLR4 ligand), 10 ng/ml
Detection: 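TNF firefly reporter luminescence divided by renilla, normalised to the plate median, then turned into a robust z-score for each replicate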
Reading the numbers: TNF reporter robust z-score: higher = stronger TNF reporter response to LPS
Hit rule: 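Each well counts as active if its z-score is over 2.8 or under -1.5; controls are left without a call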
This is an unselected part of about 18,000 reagents tested. Over the whole deposit, about 2,900 (16%) were called active. 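Calls are made per well; low scores hint the gene aids the LPS response, high scores that it dampens it.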 Repeated entries: four replicate wells of each siRNA pool.

Which result is listed for GALNT12 (GeneID 79695)?
TNF reporter robust z-score: -0.51; call: inactive

What did the screen give for GALNT12 (GeneID 79695)?
TNF reporter robust z-score: 0.19; call: inactive

With GALNT12 (GeneID 79695), how do the results read?
TNF reporter robust z-score: 0.88; call: inactive

For BTBD8 (GeneID 284697), what does the deposit list?
TNF reporter robust z-score: -0.67; call: inactive

Which result is listed for BTBD8 (GeneID 284697)?
TNF reporter robust z-score: 0.21; call: inactive

With BTBD8 (GeneID 284697), how do the results read?
TNF reporter robust z-score: -0.21; call: inactive

What is on record for BTBD8 (GeneID 284697)?
TNF reporter robust z-score: 0.17; call: inactive

Which result is listed for SLC35F6 (GeneID 54978)?
TNF reporter robust z-score: 0.95; call: inactive

Which result is listed for SLC35F6 (GeneID 54978)?
TNF reporter robust z-score: 1.27; call: inactive

With SLC35F6 (GeneID 54978), what was measured?
TNF reporter robust z-score: 0.04; call: inactive

Which result is listed for SLC35F6 (GeneID 54978)?
TNF reporter robust z-score: 0.36; call: inactive

Which result is listed for OTX1 (GeneID 5013)?
TNF reporter robust z-score: -0.76; call: inactive

For OTX1 (GeneID 5013), what was measured?
TNF reporter robust z-score: -0.7; call: inactive

With OTX1 (GeneID 5013), what was measured?
TNF reporter robust z-score: -0.69; call: inactive

Which result is listed for OTX1 (GeneID 5013)?
TNF reporter robust z-score: -0.73; call: inactive

With FAM53C (GeneID 51307), what does the deposit list?
TNF reporter robust z-score: -0.58; call: inactive

How did the screen score FAM53C (GeneID 51307)?
TNF reporter robust z-score: -1.11; call: inactive

With FAM53C (GeneID 51307), what does the deposit list?
TNF reporter robust z-score: -0.98; call: inactive

With FAM53C (GeneID 51307), what does the deposit list?
TNF reporter robust z-score: -1.4; call: inactive

With EXTL2 (GeneID 2135), how do the results read?
TNF reporter robust z-score: -0.09; call: inactive

What did the screen give for EXTL2 (GeneID 2135)?
TNF reporter robust z-score: 1.99; call: inactive

Which result is listed for EXTL2 (GeneID 2135)?
TNF reporter robust z-score: 0.23; call: inactive

How did the screen score EXTL2 (GeneID 2135)?
TNF reporter robust z-score: 1.5; call: inactive

How did the screen score SLC9A5 (GeneID 6553)?
TNF reporter robust z-score: 1.13; call: inactive

For SLC9A5 (GeneID 6553), what was measured?
TNF reporter robust z-score: 1.64; call: inactive

Which result is listed for SLC9A5 (GeneID 6553)?
TNF reporter robust z-score: 0.86; call: inactive

How did the screen score SLC9A5 (GeneID 6553)?
TNF reporter robust z-score: 2.28; call: inactive

With HSPA8 (GeneID 3312), what does the deposit list?
TNF reporter robust z-score: -0.31; call: inactive

For HSPA8 (GeneID 3312), what was measured?
TNF reporter robust z-score: -0.01; call: inactive

With HSPA8 (GeneID 3312), what was measured?
TNF reporter robust z-score: -0.2; call: inactive

With HSPA8 (GeneID 3312), how do the results read?
TNF reporter robust z-score: 0.95; call: inactive

With PGA5 (GeneID 5222), how do the results read?
TNF reporter robust z-score: 0.15; call: inactive

How did the screen score PGA5 (GeneID 5222)?
TNF reporter robust z-score: 3.36; call: active

What is on record for PGA5 (GeneID 5222)?
TNF reporter robust z-score: 1.23; call: inactive

For PGA5 (GeneID 5222), what does the deposit list?
TNF reporter robust z-score: -0.4; call: inactive

With OR2M2 (GeneID 391194), what was measured?
TNF reporter robust z-score: -1.01; call: inactive

What is on record for OR2M2 (GeneID 391194)?
TNF reporter robust z-score: -0.2; call: inactive

For OR2M2 (GeneID 391194), what was measured?
TNF reporter robust z-score: -1.29; call: inactive

What did the screen give for OR2M2 (GeneID 391194)?
TNF reporter robust z-score: -0.83; call: inactive

With MLPH (GeneID 79083), what does the deposit list?
TNF reporter robust z-score: -0.24; call: inactive

What is on record for MLPH (GeneID 79083)?
TNF reporter robust z-score: -0.4; call: inactive

Which result is listed for MLPH (GeneID 79083)?
TNF reporter robust z-score: 0.48; call: inactive

For MLPH (GeneID 79083), how do the results read?
TNF reporter robust z-score: -0.38; call: inactive

For PLCD3 (GeneID 113026), what does the deposit list?
TNF reporter robust z-score: -0.91; call: inactive

With PLCD3 (GeneID 113026), how do the results read?
TNF reporter robust z-score: -0.21; call: inactive

For PLCD3 (GeneID 113026), how do the results read?
TNF reporter robust z-score: -0.75; call: inactive

Which result is listed for PLCD3 (GeneID 113026)?
TNF reporter robust z-score: -0.46; call: inactive

For BOLA1 (GeneID 51027), how do the results read?
TNF reporter robust z-score: -0.06; call: inactive

What did the screen give for BOLA1 (GeneID 51027)?
TNF reporter robust z-score: -1.13; call: inactive

For BOLA1 (GeneID 51027), what was measured?
TNF reporter robust z-score: 0.62; call: inactive

For BOLA1 (GeneID 51027), how do the results read?
TNF reporter robust z-score: 0.96; call: inactive

Which result is listed for IFNA21 (GeneID 3452)?
TNF reporter robust z-score: 0.14; call: inactive

What did the screen give for IFNA21 (GeneID 3452)?
TNF reporter robust z-score: -0.07; call: inactive

With IFNA21 (GeneID 3452), how do the results read?
TNF reporter robust z-score: -0.95; call: inactive

How did the screen score IFNA21 (GeneID 3452)?
TNF reporter robust z-score: 0.03; call: inactive

How did the screen score PCDHB16 (GeneID 57717)?
TNF reporter robust z-score: -0.41; call: inactive

What did the screen give for PCDHB16 (GeneID 57717)?
TNF reporter robust z-score: 2.15; call: inactive

What is on record for PCDHB16 (GeneID 57717)?
TNF reporter robust z-score: 0.47; call: inactive

What did the screen give for PCDHB16 (GeneID 57717)?
TNF reporter robust z-score: 2.22; call: inactive

Which result is listed for LRP12 (GeneID 29967)?
TNF reporter robust z-score: 1.32; call: inactive

What did the screen give for LRP12 (GeneID 29967)?
TNF reporter robust z-score: 0.83; call: inactive

With LRP12 (GeneID 29967), how do the results read?
TNF reporter robust z-score: -0.58; call: inactive

With LRP12 (GeneID 29967), how do the results read?
TNF reporter robust z-score: -0.68; call: inactive

In a second layout: results already given.
| gene | TNF reporter robust z-score | call |
| --- | --- | --- |
| BOLA1 (GeneID 51027) | 0.96 | inactive |
| IFNA21 (GeneID 3452) | 0.14 | inactive |
| IFNA21 (GeneID 3452) | -0.07 | inactive |
| IFNA21 (GeneID 3452) | -0.95 | inactive |
| IFNA21 (GeneID 3452) | 0.03 | inactive |
| PCDHB16 (GeneID 57717) | -0.41 | inactive |
